Source: PMC10665427
Results are given in words; binding and its absence hold for the method and conditions named. Binding seen in cells or lysates may run through a third protein. Some binding calls cover weakened binding; strength is not graded here. Where a sequence is shown, tags or fusion partners need not be part of it.

Key:
[1] = biological target: T1, Lon^TRAP-Twin-Strep-tag (Lon S674A active-site mutant) (C. crescentus) (UniProt B8GX12); test: pull-down; Twin-Strep-tagged Lon^WT or Lon^TRAP purified on Strep-TactinXT from C. crescentus Δlon lysates; elution fractions immunoblotted for DnaA; Δlon lysate as control
T1 sequence: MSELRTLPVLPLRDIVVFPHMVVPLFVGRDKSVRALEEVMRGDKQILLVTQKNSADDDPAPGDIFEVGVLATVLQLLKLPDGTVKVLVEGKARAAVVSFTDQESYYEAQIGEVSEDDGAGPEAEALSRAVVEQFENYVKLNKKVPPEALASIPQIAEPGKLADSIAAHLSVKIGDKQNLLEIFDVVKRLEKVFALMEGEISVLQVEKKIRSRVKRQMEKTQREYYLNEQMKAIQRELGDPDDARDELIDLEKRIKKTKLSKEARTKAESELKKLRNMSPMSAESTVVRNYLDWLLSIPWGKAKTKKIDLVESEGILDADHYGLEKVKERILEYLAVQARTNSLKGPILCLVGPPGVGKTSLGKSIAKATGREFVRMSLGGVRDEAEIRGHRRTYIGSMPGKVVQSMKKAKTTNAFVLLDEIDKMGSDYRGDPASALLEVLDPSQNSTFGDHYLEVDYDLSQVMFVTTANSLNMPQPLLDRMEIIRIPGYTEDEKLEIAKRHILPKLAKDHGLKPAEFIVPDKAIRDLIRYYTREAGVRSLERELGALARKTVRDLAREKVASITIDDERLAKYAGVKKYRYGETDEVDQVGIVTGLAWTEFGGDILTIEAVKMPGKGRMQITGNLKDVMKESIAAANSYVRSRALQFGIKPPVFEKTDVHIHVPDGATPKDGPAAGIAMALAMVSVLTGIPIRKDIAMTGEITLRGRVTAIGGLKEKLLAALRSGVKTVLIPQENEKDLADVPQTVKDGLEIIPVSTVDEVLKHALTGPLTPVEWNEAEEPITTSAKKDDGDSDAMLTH

[2] = biological target: T2, Lon^WT-Twin-Strep-tag (C. crescentus) (UniProt B8GX12); test: as above
T2 sequence: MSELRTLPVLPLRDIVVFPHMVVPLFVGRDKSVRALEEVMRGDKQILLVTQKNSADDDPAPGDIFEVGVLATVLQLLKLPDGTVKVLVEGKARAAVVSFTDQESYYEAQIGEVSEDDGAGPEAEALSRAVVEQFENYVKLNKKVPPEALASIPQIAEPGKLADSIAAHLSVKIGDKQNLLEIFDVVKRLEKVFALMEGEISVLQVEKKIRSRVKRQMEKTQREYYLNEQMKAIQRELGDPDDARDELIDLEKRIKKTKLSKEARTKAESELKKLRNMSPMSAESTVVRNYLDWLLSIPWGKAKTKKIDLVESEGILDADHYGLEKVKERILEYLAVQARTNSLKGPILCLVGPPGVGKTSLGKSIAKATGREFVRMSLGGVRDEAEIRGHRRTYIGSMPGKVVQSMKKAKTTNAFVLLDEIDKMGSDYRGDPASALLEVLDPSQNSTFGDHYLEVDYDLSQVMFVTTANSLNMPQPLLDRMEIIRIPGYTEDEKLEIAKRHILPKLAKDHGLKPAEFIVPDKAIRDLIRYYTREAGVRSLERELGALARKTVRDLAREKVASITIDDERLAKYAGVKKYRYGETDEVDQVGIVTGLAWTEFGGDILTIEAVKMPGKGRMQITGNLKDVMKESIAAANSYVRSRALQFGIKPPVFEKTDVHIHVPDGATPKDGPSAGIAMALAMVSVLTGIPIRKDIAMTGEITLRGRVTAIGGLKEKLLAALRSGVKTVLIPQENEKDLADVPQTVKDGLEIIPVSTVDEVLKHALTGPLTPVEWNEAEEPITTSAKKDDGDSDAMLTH

binding [1]: binds
binding [2]: no binding
B1: DnaA (protein, UniProt P0CAU4 1-490)
chain: MTMKGGVASQDFSAAIATACEPAANVWSKVCVALKRELGDAAFGSWIAPAMLREAATGDVVLVTSTGIARDWIRRSAWRRIGELWAAHDATGRRIDLKSRLEFEAAAGAYVEATPKAVAAEPIEIVLPVSTDAPTVVAPSAKSPRTQGLQERFTFETFVPGPANEFAHAVARRIANWADGHFNPVLFHGPYGFGKTHLLNALAWEAMRNAPEKRVVYLTAERFLSTFVRAVMDRQTAAFKEELRAADLLIIDDVHFIAGKQSTQEELFHTLTALVGEGGRVVFSADRPPSAMTEMDAHLRSHLSAGLVCGLEPADRNLRLGILERKIQTLGAAHGFEPSIRPEVMQFLADRFTDSVRELEGALNTLSARAGEGLSRMTLDEVQAILRPHLRSGEKRITIDDIQKATAEHYGMKQADLLSERRNRAVARPRQAAMWLAKQLTTRSLPDIGRRFGGRDHTTVLHAVRRIEALRAEDSALSHDLETLTRKLRG
